From patent US20030228667A1
No constants are given. Whether binding was seen depends on the method and setting. Some entries that bind do so weakly or less than the wild type.

Chains of the proteins cited; added tags and fusions are not shown. Lines headed by an entry give the natural chain unless they say otherwise; changes in a name come on top.
UniProt O88522: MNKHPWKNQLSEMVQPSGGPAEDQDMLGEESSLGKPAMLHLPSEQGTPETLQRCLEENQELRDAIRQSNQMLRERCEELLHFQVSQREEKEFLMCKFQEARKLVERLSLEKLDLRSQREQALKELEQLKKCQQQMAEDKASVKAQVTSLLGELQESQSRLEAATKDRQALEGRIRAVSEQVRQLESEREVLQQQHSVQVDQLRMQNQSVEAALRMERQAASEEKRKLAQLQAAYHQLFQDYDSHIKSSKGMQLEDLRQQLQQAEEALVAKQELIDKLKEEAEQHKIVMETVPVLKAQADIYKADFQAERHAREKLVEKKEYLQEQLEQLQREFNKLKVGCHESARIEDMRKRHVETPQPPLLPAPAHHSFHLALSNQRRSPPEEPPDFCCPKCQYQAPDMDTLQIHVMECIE

What was measured:
[1] = biological target: NEMO (NF-κB Essential MOdulator), murine, untagged, in vitro translated in wheat germ extract (murine) (UniProt O88522); test: glutaraldehyde crosslinking of in vitro translated NEMO
[2] = biological target: NEMO (NF-κB Essential MOdulator), murine, untagged, in vitro translated in wheat germ extract (murine) (UniProt O88522); test: glutaraldehyde crosslinking of in vitro translated NEMO (wheat germ extract)
[3] = biological target: NEMO (NF-κB Essential MOdulator), murine, untagged, in vitro translated in wheat germ extract (murine) (UniProt O88522); test: glutaraldehyde crosslinking of in vitro translated NEMO, immunoprecipitation with NEMO antiserum, SDS-PAGE

Measured: binding

NEMO (NF-κB Essential MOdulator), murine, untagged, in vitro translated in wheat germ extract (from UniProt O88522 3-411)
binds: all assays above
